# Assay results reported in PubChem BioAssay AID493014 (National Center for Advancing Translational Sciences (NCATS), 2011).
# This is one part of the list. The main result of the screen is listed elsewhere. These columns were measured beside it and carry no call. Compounds called inactive in the main read-out are mostly missing here. The note in brackets gives the kind of curve behind each potency; many fits are weak.
# Assay: qHTS Assay to Find Inhibitors of Chronic Active B-Cell Receptor Signaling
# Settings: ABC-DLBCL IkBa-CBG/CBR reporter, luminescence ratio (green luciferase fused to IkBa over red control in TMD8 lymphoma cells), 4 h
# Summary of the method: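 Compounds up to 46 uM were incubated four hours with TMD8 cells whose green CBG68 luciferase is fused to IkappaBalpha; red CBR luminescence normalised the signal, and concentration-effect curves were fitted to fusion, red and ratio data.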
# [1] = measured here: CBR red luminescence, cell number
# [2] = measured here: IkBa-CBG green luminescence
SMILES,AC50 [1],AC50 [2]
COC(=O)c1ccc(OCCOCCOc2cccc3ccc(C)nc23)cc1,"32.6 µM [falling, partial curve, poor fit]",–
OCCN(CCO)CC(O)Cn1c2ccccc2c2ccccc21 (stereo not drawn),"1.58 µM [falling, full curve]",–
Cc1ccccc1NC(=O)Cn1c([N+](=O)[O-])cnc1C,"23.1 µM [rising, single point]",–
Brc1ccccc1Cn1c(-c2cscn2)nc2ccccc21,"4.61 µM [rising, full curve, poor fit]",–
Cc1ccc(-n2c3c(cc(C(=O)NCc4ccco4)c2=O)C(=O)CC(C)(C)C3)cc1,"3.98 µM [falling, partial curve]",–
CC(O)c1nc2ccccc2n1Cc1nnc(-c2ccc(Cl)cc2)o1 (stereo not drawn),"4.47 µM [rising, full curve, poor fit]",–
CN(C)c1ccc(C(c2nnnn2CCOC(=O)Nc2ccc(Cl)cc2)N2CCOCC2)cc1 (stereo not drawn),"4.11 µM [falling, single point]",–
CN1C(=O)/C(=C2/C=Cc3ccccc3N2CCCS(=O)(=O)O)SC1=S,"18.4 µM [rising, partial curve, poor fit]",–
Cc1ccc(S(=O)(=O)Nc2nc(C)c(C(=O)N/N=C/c3ccccc3)s2)cc1,"6.31 µM [falling, partial curve, poor fit]",–
O=c1cc(-c2ccc(O)cc2)oc2ccc(O)cc12,"11.2 µM [falling, partial curve, poor fit]","10 µM [rising, partial curve, poor fit]"
C(=C\c1ccccc1)/CSc1ccccn1,"1.12 µM [rising, full curve, poor fit]",–
COc1cc(C(=O)NNC(=O)c2cc(-c3ccccc3)n[nH]2)cc(OC)c1C,"25.9 µM [falling, partial curve, poor fit]",–
Cc1ccc(NC(=S)NC(NC(=O)c2ccccc2)C(Cl)(Cl)Cl)c(C)c1 (stereo not drawn),"18.4 µM [falling, single point]",–
CCn1c(=O)c2cc(C(=O)NCCC(C)C)sc2c2ccccc21,"0.708 µM [rising, partial curve, poor fit]",–
Cc1ccc(NC(=O)c2ccc(OC(=O)COc3cccc(Cl)c3)cc2)cc1,"1.64 µM [falling, full curve]",–
NNC(=O)c1cccc(COCC(F)(F)C(F)F)c1,"3.16 µM [falling, full curve]",–
COC(=O)c1ccc(NC(=O)CN2CCCC2)cc1,"6.51 µM [rising, single point]",–
Cc1ccc2cc(C(c3nnnn3C3CCCC3)N3CCN(c4ccccc4)CC3)c(=O)[nH]c2c1 (stereo not drawn),"0.0116 µM [rising, full curve, poor fit]",–
CCOC(=O)N1CCN(S(=O)(=O)c2ccc(F)c(C(=O)Nc3ccc(C)c(Cl)c3)c2)CC1,"29.1 µM [falling, single point]",–
Cc1cc(C)nc(NC(=O)c2cccs2)c1,"35.5 µM [falling, partial curve, poor fit]",–
COc1ccc(OC)c(-c2cc(C(=O)N3CCN(c4ccccc4)CC3)no2)c1,"3.98 µM [falling, single point]","11.2 µM [falling, partial curve, poor fit]"

SMILES,AC50 [1],AC50 [2]
Nn1c(COc2ccccc2)nc2ccccc2c1=O,"35.5 µM [falling, single point]",–
Clc1ccc(OCc2nn3c(-c4ccco4)nnc3s2)cc1,"20 µM [falling, partial curve, poor fit]",–
CCN(c1ccccc1)S(=O)(=O)c1ccc(Cl)c(NC(=O)COC(=O)c2cc(O)c3ccccc3c2O)c1,"35.5 µM [falling, single point]",–
O=S1(=O)C[C@@H](O)[C@@H](Nc2ccc(Cl)cc2)C1,"8.2 µM [rising, partial curve, poor fit]",–
O=S(=O)(c1ccc(-c2csc(Nc3ccc(F)cc3)n2)cc1)N1CCCC1,"2.31 µM [rising, full curve, poor fit]",–
COc1cc(C2C(C#N)=C(N)OC3=C2C(=O)CCC3)cc2c1OCO2 (stereo not drawn),"35.5 µM [rising, partial curve, poor fit]",–
COc1ccccc1CNC(=O)c1cc2c(C)nn(Cc3ccc(F)cc3)c2s1,"15.8 µM [falling, partial curve, poor fit]",–
COc1ccc(-c2cc(C(=O)NCCc3ccccc3)c3cc(C(C)C)ccc3n2)cc1,"6.31 µM [rising, single point]",–
CCOc1cc(/C=C2/C(=O)ON=C2C)ccc1OCc1ccccc1,"12.6 µM [falling, partial curve]",–
CCOc1ccc(S(=O)(=O)NC(C)(C)C)cc1-c1nc2c(C(C)(C)C)nn(C)c2c(=O)[nH]1,"28.2 µM [falling, single point]",–
Cc1ccccc1NC(=O)N1CCc2ccccc2C1,"14.1 µM [falling, partial curve, poor fit]",–
CCOC(=O)c1cc(S(=O)(=O)N2CCN(Cc3ccccc3)CC2)cn1C,"3.55 µM [rising, partial curve, poor fit]",–
O=C1CC(Sc2nnc(-c3ccccc3)o2)C(=O)N1c1ccccc1 (stereo not drawn),"23.1 µM [falling, single point]","25.9 µM [rising, partial curve, poor fit]"
Cc1cc(C(=O)Cn2cc(C(F)(F)F)ccc2=O)c(C)n1CC1CCCO1 (stereo not drawn),"29.1 µM [rising, single point]",–
O=C(c1ccccc1F)N1CCN(S(=O)(=O)c2ccc3c(c2)OCCO3)CC1,"7.94 µM [falling, partial curve]",–
O=C(Cc1ccccc1[N+](=O)[O-])OCc1cccc([N+](=O)[O-])c1,"11.2 µM [rising, partial curve, poor fit]","11.2 µM [falling, partial curve, poor fit]"
Cc1ccccc1OCc1nc(-c2ccc(Br)o2)no1,"29.1 µM [rising, single point]",–
O=C(O)c1ccc(CSc2nc3ccccc3[nH]2)cc1,"8.91 µM [falling, partial curve]",–
COc1ccccc1N1CCN(S(=O)(=O)CCNC(=O)CC2CCCCC2)CC1,"18.4 µM [rising, partial curve, poor fit]",–
CCOCC(=O)Nc1cccc(OC)c1,"0.731 µM [falling, partial curve, poor fit]",–
CCCCn1c(=S)[nH]c2ccccc2c1=O,"29.1 µM [rising, single point]",–

# Filtered by structure: those above containing an aryl thioether with sulfur outside any ring (three)
SMILES,AC50 [1],AC50 [2]
C(=C\c1ccccc1)/CSc1ccccn1,"1.12 µM [rising, full curve, poor fit]",–
O=C1CC(Sc2nnc(-c3ccccc3)o2)C(=O)N1c1ccccc1 (stereo not drawn),"23.1 µM [falling, single point]","25.9 µM [rising, partial curve, poor fit]"
O=C(O)c1ccc(CSc2nc3ccccc3[nH]2)cc1,"8.91 µM [falling, partial curve]",–

# (more compounds)

SMILES,AC50 [1],AC50 [2]
CCOC(=O)C1CCN(Cc2cccc(OC)c2)CC1,"1.03 µM [rising, full curve]",–
O=C1C(C=NCc2ccccn2)=C(O)c2ccccc21,"11.2 µM [falling, partial curve, poor fit]",–
CC1=C(C(=O)OCc2ccccc2)C(c2ccc(Cl)cc2)NC(=O)N1CCCCCC(=O)O (stereo not drawn),"23.1 µM [falling, partial curve]",–
COc1ccc(NC(=S)NC(=O)c2ccccc2Cl)cc1,"15.8 µM [rising, single point]",–
CCN(CC)C(=O)CN1C(=O)NC2(CCc3ccccc3C2)C1=O (stereo not drawn),"4.47 µM [rising, single point]",–
Cc1cccc(NCc2nc(SCC(=O)Nc3ccccc3Br)n[nH]2)c1,"3.16 µM [rising, single point]",–
COc1cc(-c2nn3c(-c4ccccc4)nnc3s2)cc(OC)c1OC,"20 µM [rising, single point]",–
O=C(NNC(=O)c1cc(Cl)ccc1O)c1cccc(S(=O)(=O)N2CCOCC2)c1,"5.8 µM [falling, partial curve]",–
CC(/C=C/C=C/c1ccccc1)=N/NC(=O)CNc1ccccc1C,"0.366 µM [rising, full curve]",–
O=C(Nc1cccc(S(=O)(=O)c2cccc(NC(=O)c3ccco3)c2)c1)c1ccco1,"15.8 µM [falling, partial curve, poor fit]",–
CCN(CC)C(=O)CSc1nc2ncccc2[nH]1,"17.8 µM [falling, single point]",–
COc1ccc2c3n(nc2c1)CCN=C3c1cc(Cl)c(N)c(Cl)c1,"0.411 µM [falling, full curve]",–
COCCCNC(=S)N/N=C/c1ccc(O)cc1O,"0.562 µM [falling, full curve]","11.2 µM [rising, partial curve, poor fit]"
CCNC(=S)N1CCc2cc(OC)c(OC)cc2C1COc1ccc(OC)cc1 (stereo not drawn),"31.6 µM [falling, single point]",–
CNC(=O)COc1ccc(-c2nn(C)c(=O)c3ccccc23)cc1,"32.6 µM [rising, single point]",–
COc1ccc(/C=N/NC(=O)CSc2ccccc2)cc1OC,"16.4 µM [rising, partial curve, poor fit]",–
CCCOc1ccc(C(=O)C(CN2CCCC2)c2ccccc2)cc1 (stereo not drawn),"16.4 µM [falling, partial curve, poor fit]",–
O=C(Nc1nnc(SCc2ccc(F)cc2)s1)c1ccccn1,"3.16 µM [rising, partial curve, poor fit]","3.16 µM [falling, partial curve, poor fit]"
O=C(Nc1ccc2c(c1)OCO2)c1ccc2nc[nH]c2c1,"16.4 µM [falling, single point]",–
Cc1nc2ccccc2n1CCc1nc2c3ccccc3nc(SCC(=O)Nc3ccc(C(C)C)cc3)n2n1,"1.58 µM [rising, partial curve, poor fit]",–
